This is an account of results in publication PMC3119699, “Characterizing the Role of Cell-Wall β-1,3-Exoglucanase Xog1p in Candida albicans Adhesion by the Human Antimicrobial Peptide LL-37” (PLoS ONE, 2011).

No constants are given. Whether binding was seen depends on the method and setting. Some binding calls cover weakened binding; strength is not graded here. Sequences can lack the tags named with a protein.

Test [1] addresses T1, Xog1p, cell-wall β-1,3-exoglucanase of C. albicans (endogenous) (C. albicans (endogenous in SC5314)) (UniProt P29717).
T1 sequence: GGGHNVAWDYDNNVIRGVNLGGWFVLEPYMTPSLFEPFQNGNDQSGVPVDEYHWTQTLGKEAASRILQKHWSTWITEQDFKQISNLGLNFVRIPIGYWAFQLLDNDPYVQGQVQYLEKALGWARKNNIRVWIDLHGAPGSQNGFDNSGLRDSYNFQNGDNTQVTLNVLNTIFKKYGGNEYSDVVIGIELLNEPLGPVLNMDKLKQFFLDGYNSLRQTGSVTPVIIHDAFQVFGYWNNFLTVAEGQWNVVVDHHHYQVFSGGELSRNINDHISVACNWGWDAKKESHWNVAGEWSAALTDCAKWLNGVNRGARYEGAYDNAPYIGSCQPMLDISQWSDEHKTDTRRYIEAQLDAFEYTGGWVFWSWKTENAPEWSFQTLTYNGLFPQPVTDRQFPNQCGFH
Briefly: flow cytometry on cells; C. albicans wild type, XOG1-deletion and XOG1-reintegrated strains (6×10^6 cells) with 10 µg BA-LL37 in 750 µl PBS, 4°C overnight; SA-DTAF; normalised to the wild type; only the binder purified.

The target of test [2] is T1, Xog1p, cell-wall β-1,3-exoglucanase of C. albicans (endogenous) (C. albicans (endogenous in SC5314)). Briefly: far-Western, overlay or dot blot; cell-wall extracts separated by SDS-PAGE, transferred to PVDF, blocked with 3% non-fat milk; probe BA-LL37 (1.1 µM) in 0.1% PBST; HRP-conjugated streptavidin, ECL; only the binder purified.

As to LLGDFFRKSKEKIGKEFKRIVQRIKDFLRNLVPRTES (biotinylated (site not stated)) [biotinylated LL-37 (BA-LL37)], the binding result in test [1] and in test [2] was “binds” in each case.
